PubChem BioAssay AID1259267 – Sanger Institute, 2017
Screen: 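Essential and drug-synergistic knock-downs in GP5D bowel cancer cells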 (primary screen). System: human GP5D colorectal cancer cells. Knock-down reagent: siRNA pool against human genes. Treatment: anchor drugs at low dose: BYL719 1 µM, cetuximab 5 µg/ml, trametinib 10 nM, or DMSO vehicle. Measured: 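Viability against non-targeting pool, replicate mean: robust z-score for knock-down alone, fraction with DMSO, synergy with BYL719 1 µM, cetuximab 5 µg/ml, trametinib 10 nM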. Direction: robust z-score, knock-down alone and viability with DMSO: higher = more viable cells; synergy score with trametinib and synergy score with BYL719 and synergy score with cetuximab: higher = stronger synthetic lethal synergy with drug. Rule for the call: 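Active (essential alone) if knock-down without drug gives robust z-score under -3; drug synergy does not count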. Calls: active = essential alone; inactive = not essential.
In all, the deposit lists 794 reagents; below is a part drawn at random. 9 of all reagents (1.1%) count as active. 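Viability capped at 1; calls reflect loss of viability from knock-down alone, not synergy with drugs.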 Not given: the amount of reagent, the time to read-out.

Gene	robust z-score, knock-down alone	viability with DMSO (fraction of control)	synergy score with trametinib	synergy score with BYL719	synergy score with cetuximab	outcome
NUP62	-2.13	0.376	0.0652	-0.328	0.0391	inactive
PSKH2	0.817	1	0.235	0.0249	-0.0151	inactive
AXL	0.774	0.991	-0.111	-0.154	-0.15	inactive
ACVR1C	0.817	1	-0.0222	0.114	-0.0834	inactive
RUNX1	-1.69	0.469	0.0971	-0.0281	-0.0141	inactive
RPS6KA1	0.631	0.961	0.236	0.0627	0.1	inactive
DGKQ	0.215	0.872	0.238	0.00724	0.0948	inactive
DLG3	0.773	0.991	0.14	0.0442	0.0143	inactive
EIF2AK1	0.664	0.967	0.207	0.0483	0.313	inactive
PRPS1L1	-0.561	0.708	0.00195	-0.204	-0.263	inactive
PRKCD	0.0519	0.838	0.101	0.00503	0.127	inactive
BRWD1	-0.331	0.757	0.198	-0.0604	0.0107	inactive
TTBK2	-1.59	0.491	-0.00504	-0.401	-0.224	inactive
WIPF1	-1.49	0.511	-0.0101	-0.106	-0.142	inactive
MAPKAPK3	-0.702	0.678	-0.178	-0.0792	0.0197	inactive
PDXK	0.817	1	0	-0.214	-0.142	inactive
CALM1	0.562	0.946	0.0364	-0.103	-0.0476	inactive
NME4	-0.683	0.682	-0.348	-0.418	-0.351	inactive
IRAK2	0.301	0.891	0.296	-0.0941	-0.0288	inactive
ULK4	0.0934	0.847	0.224	0.0483	0.129	inactive
DDR2	-0.358	0.751	0.00602	-0.372	-0.0411	inactive
STK38L	-1.63	0.482	-0.0225	-0.126	-0.142	inactive

Next part (3 carried over from the part before).
Gene	robust z-score, knock-down alone	viability with DMSO (fraction of control)	synergy score with trametinib	synergy score with BYL719	synergy score with cetuximab	outcome
ULK4	0.0934	0.847	0.224	0.0483	0.129	inactive
DDR2	-0.358	0.751	0.00602	-0.372	-0.0411	inactive
STK38L	-1.63	0.482	-0.0225	-0.126	-0.142	inactive
ACVR1	0.268	0.884	0.145	0.0513	0.152	inactive
RPS6KA2	-2.16	0.369	0.00957	-0.0789	-0.0918	inactive
DGKD	-0.315	0.76	0.00882	-0.0978	-0.306	inactive
DGKB	-0.837	0.649	0.165	0.0846	0.107	inactive
PKN3	0.817	1	0.0729	-0.0612	0.00597	inactive
CDK5	0.671	0.969	-0.0533	-0.144	-0.0601	inactive
PRKG1	-0.777	0.662	-0.468	-0.577	-0.334	inactive
MGA	-1.15	0.583	0.1	-0.118	-0.192	inactive
EPHA8	0.817	1	-0.176	-0.236	-0.142	inactive
TRIM27	0.317	0.894	0.172	-0.325	-0.137	inactive
MUSK	-2.49	0.299	-0.115	-0.192	-0.127	inactive
SPEG	0.577	0.949	0.0388	-0.0975	-0.0392	inactive
TJP2	-0.207	0.783	-0.186	-0.22	-0.28	inactive
AK5	-0.664	0.686	-0.289	-0.424	-0.283	inactive
MELK	0.529	0.939	-0.0846	-0.0902	0.107	inactive
CDKL1	-0.632	0.693	-0.165	-0.0721	-0.174	inactive
ADCK1	-0.00346	0.826	-0.0596	-0.1	-0.0905	inactive
TRIB3	-1.7	0.466	-0.204	-0.294	-0.115	inactive
PI4K2A	-0.952	0.625	-0.498	-0.506	-0.258	inactive
MINK1	0.817	1	0.0865	-0.104	0.00172	inactive
PTGS1	-0.3	0.763	0.0568	-0.144	0.00146	inactive
PFKP	0.817	1	0.175	0.00775	0.0824	inactive
GUCY2F	0.817	1	0.167	0.118	-0.0911	inactive
PRKX	0.817	1	-0.197	-0.217	-0.142	inactive
STK4	-0.261	0.771	-0.256	-0.223	-0.108	inactive
PTPN11	0.592	0.952	-0.0321	-0.256	-0.0439	inactive
WT1	-0.0959	0.807	-0.352	-0.319	-0.241	inactive
PKN2	-1.39	0.532	-0.188	-0.153	-0.0289	inactive
